This is an account of results in US8608842B2, “Infrared absorbing composition, infrared absorbing ink, recorded article, image recording method, and image detecting method” (FUJIFILM Corporation, priority 2010, dated 2013).

Some entries repeat one wording, which the source may state once for all of them.

Data set [1] is described as follows: Ultraviolet curable ink of Example 4: reflected light of mark for copy protection, before and after xenon irradiation. Format: physicochemical. The settings on record: reflection intensity of mark area / area outside mark, as ratio to comparative infrared absorbing agent A set to 1. On the procedure:
By mixing the components of the composition shown below, an ultraviolet curable ink having an infrared absorbing property was prepared.
By using the ultraviolet curable ink thus obtained, a mark for copy protection was printed on the same base paper as that used in Example 1 by Gravure printing. On top of the printed mark for copy protection, each of the three kinds of a process ink (FDOL Yellow, FDOL Magenta, and FDOL Cyan, trade names, manufactured by TOYO INK MFG. CO., LTD.) was applied as a layer by Gravure printing, or a mixture ink in which the three kinds of a process ink are mixed was applied as a layer by Gravure printing to hide the mark for copy protection, thus obtaining a printed article.
The mark for copy protection that is hidden by the process ink was irradiated with infrared light using a linear sensor (trade name: TCD1500C, manufactured by Toshiba) in which the infrared cut-off filter of linear sensor was replaced with an infrared transmitting filter (trade name: IR83, manufactured by Hoya) as a detection device, and the reflected light was detected simultaneously.
The reflection light intensity in the area of the mark for copy protection at the time of detecting the mark was divided by the reflection light intensity of the area outside the mark for copy protection. The resulting value of the comparative infrared absorbing agent A was set to 1, and a ratio of the resulting value with respect to the resulting value of the comparative infrared absorbing agent A was calculated for each compound.
In addition, the obtained printed article was irradiated continuously with xenon light of 70,000 lux for 72 hours by using a Xenon lamp. After the irradiation, similar to above, the reflection light intensity of the area of the mark for copy protection was divided by the reflection light intensity of the area outside the mark for copy protection, and the variation ratio [%] compared to the value before the irradiation was calculated to use it as an index for evaluation of light resistance.

Data set [2] in a line: Bar code pattern reading (PCS) of printed article before and after xenon light irradiation (light resistance). The format is physicochemical. How it is done: By mixing the components of the composition shown below, the infrared absorbing printing ink (1) was prepared.
By using each of the infrared absorbing printing ink obtained above, a bar code pattern was formed on a regular paper (trade name: MP-120, manufactured by PLUS Corporation), i.e., a base paper, by Gravure printing.
Subsequently, on the formed bar code pattern, another bar code pattern was additionally formed by using the infrared absorbing ink (2) having the composition shown below.
Next, on top of the bar code patterns formed by disposing two layers, three kinds of process inks having infrared transmittance (FDOL Yellow, FDOL Magenta, and FDOL Cyan, manufactured by TOYO INK MFG. CO., LTD. (trade names, manufactured by TOYO INK MFG. CO., LTD.) were further applied by Gravure printing to form a colored layer made of three visible colors (cyan, magenta, and yellow). As a result, a printed article having a bar code pattern disposed inside the matter was produced.
Two kinds of semiconductor laser beam having wavelengths of 830 nm and 905 nm respectively were irradiated onto the thus obtained printed article, and the detection was made by using a filter which cuts off the emission light having wavelength of 950 nm or less. As a result, it was possible to detect the pattern formed by the infrared absorbing ink.
Subsequently, xenon light of 70,000 lux was irradiated continuously for 200 hours onto the printed article by using a xenon lamp. After that, the reading state of the bar code pattern after the irradiation was evaluated. For the evaluation, PCS (print•contrast•signal) of 0.6 or more was evaluated as “good,” and PCS (print•contrast•signal) of less than 0.6 was evaluated as “bad.” The evaluation results are shown in Table 2 below.
The printed article was prepared in the same manner as Example 1 except that the solvent (a mixture solvent of toluene and methyl isobutyl ketone) in the composition of the infrared absorbing ink (1) and (2) is replaced with n-octane (SP value: 7.6), butyl acetate (SP value: 8.5), or isopropyl alcohol (IPA; SP values: 11.5), and evaluated.
The comparative printed article was prepared in the same manner as Example 1 except that the solvent (a mixture solvent of toluene and methyl isobutyl ketone) in the composition of the infrared absorbing ink (1) and (2) is replaced with n-pentane (SP value: 7.0; Example 2) or ethanol (SP value: 12.7; Example 3), and evaluated.

Setting [3] is: Example 2, ink solvent n-pentane (SP value: 7.0).
Setting [4] is: Example 3, ink solvent ethanol (SP value: 12.7).
Setting [5] is: ink solvent IPA (SP value: 11.5).
Setting [6] is: ink solvent butyl acetate (SP value: 8.5).
Setting [7] is: ink solvent n-octane (SP value: 7.6).
[8] abbreviates: ink solvent toluene/methyl isobutyl ketone = 70/30.

As to `CCOc1c2c(c(OCC)c3ccccc13)-c1nc-2nc2[n-]c(nc3nc(nc4[n-]c(n1)c1c(OCC)c5ccccc5c(OCC)c41)-c1c-3c(OCC)c3ccccc3c1OCC)c1c(OCC)c3ccccc3c(OCC)c21.[Cu+2]` [Compound 23], in data set [1], the “Strength of reflected light before irradiation” value (shortened to “Strength”) came to 0.5. Besides, the Reading before irradiation entry in data set [2] (setting [3]), in data set [2] (setting [4]), in data set [2] (setting [5]), in data set [2] (setting [6]), in data set [2] (setting [7]) and in data set [2] (setting [8]) was “Good (PCS (print•contrast•signal) of 0.6 or more was evaluated as “good,”)” in each case.

As to `CCCCOc1c2c(c(OCCCC)c3ccccc13)C1=Nc3c4c(OCCCC)c5ccccc5c(OCCCC)c4c4[n]3[Cu][n]3c(c5c(OCCCC)c6ccccc6c(OCCCC)c5c3=NC3=NC(=N4)c4c3c(OCCCC)c3ccccc3c4OCCCC)=NC2=N1` [Compound 24], the “Strength” value in data set [1] came to 0.5. For the same compound, the Reading before irradiation result in data set [2] (setting [3]), in data set [2] (setting [4]), in data set [2] (setting [5]), in data set [2] (setting [6]), in data set [2] (setting [7]) and in data set [2] (setting [8]) was “Good (PCS (print•contrast•signal) of 0.6 or more was evaluated as “good,”)” each time.

Regarding `CCCCCCCCOc1c2c(c(OCCCCCCCC)c3ccccc13)C1=Nc3c4c(OCCCCCCCC)c5ccccc5c(OCCCCCCCC)c4c4[n]3[Cu][n]3c(c5c(OCCCCCCCC)c6ccccc6c(OCCCCCCCC)c5c3=NC3=NC(=N4)c4c3c(OCCCCCCCC)c3ccccc3c4OCCCCCCCC)=NC2=N1` [Compound 25], the “Strength” value in data set [1] is reported as 0.2. The Reading before irradiation entry in data set [2] (setting [3]), in data set [2] (setting [4]), in data set [2] (setting [5]), in data set [2] (setting [6]), in data set [2] (setting [7]) and in data set [2] (setting [8]) was “Good (PCS (print•contrast•signal) of 0.6 or more was evaluated as “good,”)” throughout.

On to `CCCCCCCCOc1c2c(c(OCCCCCCCC)c3ccccc13)C1=Nc3c4c(OCCCCCCCC)c5ccccc5c(OCCCCCCCC)c4c4[n]3[Zn][n]3c(c5c(OCCCCCCCC)c6ccccc6c(OCCCCCCCC)c5c3=NC3=NC(=N4)c4c3c(OCCCCCCCC)c3ccccc3c4OCCCCCCCC)=NC2=N1` [Compound 27], for which, in data set [1], the “Strength” value came out at 0.3. Further, the Reading before irradiation result in data set [2] (setting [3]), in data set [2] (setting [4]), in data set [2] (setting [5]), in data set [2] (setting [6]), in data set [2] (setting [7]) and in data set [2] (setting [8]) was “Good (PCS (print•contrast•signal) of 0.6 or more was evaluated as “good,”)” in each case.

For the compound `Nc1ccccc1Sc1c2c(c(Sc3ccccc3N)c3c1C1=Nc4c5c(Sc6ccccc6N)c6c(c(Sc7ccccc7N)c5c5[n]4[Cu][n]4c(c7c(Sc8ccccc8N)c8c(c(Sc9ccccc9N)c7c4=NC4=NC(=N5)c5c(Sc7ccccc7N)c7c(c(Sc9ccccc9N)c54)NC4C=CC=CC4S7)SC4C=CC=CC4N8)=NC3=N1)NC1C=CC=CC1S6)SC1C=CC=CC1N2` (centres unmarked) [Compound 69], in data set [1], the “Strength” value is reported as 0.4. Also, the Reading before irradiation result in data set [2] (setting [3]), in data set [2] (setting [4]), in data set [2] (setting [5]), in data set [2] (setting [6]), in data set [2] (setting [7]) and in data set [2] (setting [8]) was “Good (PCS (print•contrast•signal) of 0.6 or more was evaluated as “good,”)” each time.

Take `Nc1ccccc1Sc1c2c(c(Sc3ccccc3N)c3c1C1=Nc4c5c(Sc6ccccc6N)c6c(c(Sc7ccccc7N)c5c5[n]4[V](=[O])[n]4c(c7c(Sc8ccccc8N)c8c(c(Sc9ccccc9N)c7c4=NC4=NC(=N5)c5c(Sc7ccccc7N)c7c(c(Sc9ccccc9N)c54)NC4C=CC=CC4S7)SC4C=CC=CC4N8)=NC3=N1)NC1C=CC=CC1S6)SC1C=CC=CC1N2` (centres unmarked) [Compound 71]: the “Strength” value in data set [1] stood at 0.3. Besides, the Reading before irradiation entry in data set [2] (setting [3]), in data set [2] (setting [4]), in data set [2] (setting [5]), in data set [2] (setting [6]), in data set [2] (setting [7]) and in data set [2] (setting [8]) was “Good (PCS (print•contrast•signal) of 0.6 or more was evaluated as “good,”)” in each case.

Consider `CCCCCCCCN1/C(=C/C=C/C=C/C=C/C2=[N+](CCCCCCCC)c3ccc4ccccc4c3C2(C)C)C(C)(C)c2c1ccc1ccccc21.Cc1ccc(S(=O)(=O)[O-])cc1` [reference compound], for which the “Strength” value in data set [1] came to 0.9. Besides, the Reading before irradiation entry in data set [2] (setting [8]) was “Good (PCS (print•contrast•signal) of 0.6 or more was evaluated as “good,”)”.
